{"sequences": {"note": "Amino acid sequences for entries named in this document (tags omitted).", "UniProt Q0JBA9, entry or part of it": "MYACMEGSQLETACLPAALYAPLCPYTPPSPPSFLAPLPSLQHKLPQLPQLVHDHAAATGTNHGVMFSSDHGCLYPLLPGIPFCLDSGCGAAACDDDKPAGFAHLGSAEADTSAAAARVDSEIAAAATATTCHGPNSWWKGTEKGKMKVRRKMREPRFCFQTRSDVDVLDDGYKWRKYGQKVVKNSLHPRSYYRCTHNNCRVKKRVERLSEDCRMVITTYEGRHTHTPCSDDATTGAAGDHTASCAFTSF"}, "source": "paper PMC7819943", "about": "“Rice protein-binding microarrays: a tool to detect cis-acting elements near promoter regions in rice”", "note": "The other results are listed elsewhere or left out.", "data": [{"biological_target": "OsWRKY34 (Oryza sativa, UniProt Q0JBA9 1-250)", "assay": "protein-binding microarray (RPBM); PBS, 2% BSA, 51.3 ng/ul salmon testes DNA, 50 uM zinc acetate, 200 nM TF, 25 C, 1 h; high values mean tight binding", "conditions": "protein: recombinant; tags: N-terminal polyhistidine and DsRed monomer fusion (pET32a); label: CyDye5-dUTP incorporated in the synthesized complementary strand; 3' TTTTT single-stranded linker to array surface; dsDNA, one strand shown", "how_it_was_run": "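Binding signal here means per-feature fluorescence intensity in arbitrary units. The values were read on an Axon 4000B scanner after a custom Agilent array, double-stranded by primer extension with Cy5-dUTP, was incubated with 200 nM protein at 25 °C for 1 h in PBS with 2% BSA, salmon testes DNA and 50 µM zinc acetate, then washed. The proteins were transcription factors with an N-terminal polyhistidine tag and DsRed, expressed in E. coli BL21-CodonPlus and purified on Ni–NTA.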", "values": [{"sequence": "ATATTTGCCGATCTCTTGCCGCCGACCCCGCCGCAATAACCGGAGTCACCTAGTGCAG", "binding signal": "10400 fluorescence intensity (a.u.)"}, {"sequence": "TTTTGATTGATTTGTCGCCGGCGACGCGCCGCCCGCCATGCGGAGTCACCTAGTGCAG", "binding signal": "11100 fluorescence intensity (a.u.)"}, {"sequence": "CTTTCATGAATATAATTGGTGTTTCTTTCCTACGTACTTCCGGAGTCACCTAGTGCAG", "binding signal": "9400 fluorescence intensity (a.u.)"}, {"sequence": "CTTTTTTCCCGTGTTGGCCGTCTTCTTTTTATCGTCTAGTCGGAGTCACCTAGTGCAG", "binding signal": "14100 fluorescence intensity (a.u.)"}, {"sequence": "TGCTCCAATCTTCTCGGTTCTTGAGGGGTTTTAAAGAGGACGGAGTCACCTAGTGCAG", "binding signal": "9040 fluorescence intensity (a.u.)"}, {"sequence": "TCTGATTCTTGCTTCGTGTGCTTCGCCGTCGCCGCCGCCGCGGAGTCACCTAGTGCAG", "binding signal": "8280 fluorescence intensity (a.u.)"}, {"sequence": "GGTGAGAGCCTGAGTTTGTTTGTTTCTTTTTCCGCGCGCACGGAGTCACCTAGTGCAG", "binding signal": "12000 fluorescence intensity (a.u.)"}, {"sequence": "GCTCTGGAAAGCTTCAGTTTGGCTTCTTTGATATCTTGTTCGGAGTCACCTAGTGCAG", "binding signal": "11200 fluorescence intensity (a.u.)"}, {"sequence": "TTGGATCGTTTGCTTTTCTTTGCCTTTCTTTTGGATTTCTCGGAGTCACCTAGTGCAG", "binding signal": "11700 fluorescence intensity (a.u.)"}, {"sequence": "TTCTCTCTTTCTTGTCTAATTTGGTCTGGTCACAGTTTATCGGAGTCACCTAGTGCAG", "binding signal": "11600 fluorescence intensity (a.u.)"}, {"sequence": "TAAGACAAACGGTCAAATATTTACTAAAAAGTCAACGGTGCGGAGTCACCTAGTGCAG", "binding signal": "8870 fluorescence intensity (a.u.)"}, {"sequence": "CCCCTCAGATTACAGTCGGCCGGTGCCGCTACCGCCGCGGCGGAGTCACCTAGTGCAG", "binding signal": "8970 fluorescence intensity (a.u.)"}, {"sequence": "CATCACTCTCTCTCTCTCGCTCGCTCGCTACTCCAGACTGCGGAGTCACCTAGTGCAG", "binding signal": "11700 fluorescence intensity (a.u.)"}, {"sequence": "GGGGTTTATTATTTTCCCGGGTTAAATTGCCACGTAAGCACGGAGTCACCTAGTGCAG", "binding signal": "10100 fluorescence intensity (a.u.)"}, {"sequence": "AACTTCCAACTTTACATCACATCTAAAACTTTTCTACACACGGAGTCACCTAGTGCAG", "binding signal": "8770 fluorescence intensity (a.u.)"}, {"sequence": "GGCACCTACTTCTACTTCCCCTCCCTCGCCTTCCACAAGGCGGAGTCACCTAGTGCAG", "binding signal": "8050 fluorescence intensity (a.u.)"}, {"sequence": "CCCATCCGGTTCTAGGTTCTTATATATTGGGACGGAGGGACGGAGTCACCTAGTGCAG", "binding signal": "8230 fluorescence intensity (a.u.)"}, {"sequence": "ATTTTGCGGTGGTTGGATTGGAGGGAGGGAAATTAATTGACGGAGTCACCTAGTGCAG", "binding signal": "10800 fluorescence intensity (a.u.)"}, {"sequence": "AAATTATTGTCTTCACATCCATCAACTTTTAGTCTCATGTCGGAGTCACCTAGTGCAG", "binding signal": "9260 fluorescence intensity (a.u.)"}, {"sequence": "TAAACATCAGTCTATTTACTGCTATGCATTTTGGCATTTTCGGAGTCACCTAGTGCAG", "binding signal": "9720 fluorescence intensity (a.u.)"}, {"sequence": "CGAGGGTGGTGGCTGGTGCGGAAATTGAGGAGTTCAATCACGGAGTCACCTAGTGCAG", "binding signal": "9660 fluorescence intensity (a.u.)"}, {"sequence": "GATATCCGGTTTTGTGGTTTAGGGTCATGGATTAGATTTCCGGAGTCACCTAGTGCAG", "binding signal": "14900 fluorescence intensity (a.u.)"}, {"sequence": "GGCCAACACGTTCCCGGTCTATCGTTACCTATTCTTGTACCGGAGTCACCTAGTGCAG", "binding signal": "11600 fluorescence intensity (a.u.)"}, {"sequence": "CAGCCGCCCTACGTCAGCCAAGTCCAACGACAACGCCCAACGGAGTCACCTAGTGCAG", "binding signal": "8200 fluorescence intensity (a.u.)"}, {"sequence": "TATAGGTCCAATCTAATTTGTATCCCTTGACCGCAATACCCGGAGTCACCTAGTGCAG", "binding signal": "8580 fluorescence intensity (a.u.)"}, {"sequence": "TAGACTGTATCATCAAAATTTTGGGTCTTATTATGCGTTTCGGAGTCACCTAGTGCAG", "binding signal": "9580 fluorescence intensity (a.u.)"}, {"sequence": "TCACTCTAATTTTACTTTGACCTCACACTATTACAGCATTCGGAGTCACCTAGTGCAG", "binding signal": "8800 fluorescence intensity (a.u.)"}, {"sequence": "TACTCATCAGTTCATCCGTGATTTCAGCCATTTGTTCCAACGGAGTCACCTAGTGCAG", "binding signal": "11500 fluorescence intensity (a.u.)"}, {"sequence": "ACTGTTTAGCTAGCGCTTTAATCTGTCTGCGTAATTTGTTCGGAGTCACCTAGTGCAG", "binding signal": "9230 fluorescence intensity (a.u.)"}, {"sequence": "CGTTATGTGCCGTGTGAGTTTTTCTGTTCCTGCTCATGCTCGGAGTCACCTAGTGCAG", "binding signal": "13000 fluorescence intensity (a.u.)"}, {"sequence": "TTTTCGCACTTTTTTCGCGCTTGATTTTTTTCCATAAAGACGGAGTCACCTAGTGCAG", "binding signal": "9130 fluorescence intensity (a.u.)"}, {"sequence": "ACTATAAATTTGTAGCACACGACTCTTCTCTTTTCTTTTTCGGAGTCACCTAGTGCAG", "binding signal": "10400 fluorescence intensity (a.u.)"}, {"sequence": "GCGTGAGTTGTGGCTGAGTGGGTTTGGCCATTGTAATCTCCGGAGTCACCTAGTGCAG", "binding signal": "10100 fluorescence intensity (a.u.)"}, {"sequence": "CGCCGTCTCCTCGTGTAACCCTAGCTTAGTGGATTAGTTTCGGAGTCACCTAGTGCAG", "binding signal": "9880 fluorescence intensity (a.u.)"}, {"sequence": "TATACACATTTCATTATCTTTCTTTTTTTCCTAAAAACTCCGGAGTCACCTAGTGCAG", "binding signal": "8590 fluorescence intensity (a.u.)"}, {"sequence": "CTCTGCTTTAATCGCACTCGCATCCCACTGCTTTGCTTTCCGGAGTCACCTAGTGCAG", "binding signal": "11000 fluorescence intensity (a.u.)"}, {"sequence": "GTTCACCGCATATTCGTTTTTCTCCAATGCGTAGCAGTAACGGAGTCACCTAGTGCAG", "binding signal": "10700 fluorescence intensity (a.u.)"}, {"sequence": "TCTTCCTCTGCGTGGGCCGGGGCGGAGGGAGGGAGGGGAACGGAGTCACCTAGTGCAG", "binding signal": "16300 fluorescence intensity (a.u.)"}, {"sequence": "GGGCGGAGGCGGGGATCGCGGCGGGAGGGGTGGATCCATGCGGAGTCACCTAGTGCAG", "binding signal": "17400 fluorescence intensity (a.u.)"}, {"sequence": "AGTCCGTGCTGCAGATCTGCTCTTTTCTCTTCGTTTAACTCGGAGTCACCTAGTGCAG", "binding signal": "10300 fluorescence intensity (a.u.)"}, {"sequence": "CCTCCTTTGTTCTTGCTCCTCTTTGCACGCAAAGAATCGGCGGAGTCACCTAGTGCAG", "binding signal": "9110 fluorescence intensity (a.u.)"}, {"sequence": "GCTTGAACTGCCTTTTAAAATTTATCATTACTGGATTTTGCGGAGTCACCTAGTGCAG", "binding signal": "8910 fluorescence intensity (a.u.)"}]}]}
